From US20240076738A1, “Methods for Measuring Analytes in Cell Subpopulations” (Cleveland Cytometry Services Company, priority 2022, published 2024)
For at least one compound, name, drawing or mass did not settle the structure.

System: Ki-67
Test: Ki-67 immunofluorescence to G0 background ratios in G1 and S phase T cells of the same subjects after decitabine
Type: in vivo, human
Conditions: after treatment, recovery and retreatment, versus untreated

Nc1ncn([C@H]2C[C@H](O)[C@@H](CO)O2)c(=O)n1 [decitabine]
mean ratios of G1 and S phase Ki-67 immunofluorescence to background: no significant differences
